Experimental data from US20150030542A1, “METHODS FOR MEDICAL IMAGING” (priority 2013, published 2015).

System: human tumors
Assay: Ex vivo analysis of tumor fluorescence of resected specimens (NIR imaging, hand-held spectrometer)
Format: in vivo
Source text: Following in vivo imaging, the patients then underwent a standard-of-care surgical resection of the tumor. Once removed from the patient, the specimen was examined, opened, biopsied and analyzed ex vivo (FIG. 2a). Every case was photo-documented both by brightfield imaging and NIR imaging. […] Then, the hand held spectrometer was used to semi-quantitate tissue fluorescence. Each tumor had 4 measurements at four perpendicular locations and the center of the tumor (total of 20 measurements/tumor). Mean fluorescence in the human tumors was 53,304±4193 au in 25 out of 27 masses (93%) (FIG. 2b). We conjectured that the center of the tumor might be less fluorescent than the periphery due to necrosis or, conversely, that the center of the tumor might be more fluorescent than the periphery due to increased ICG retention. We found neither to be true. The fluorescence from the tumors was remarkably homogeneous throughout the tumor. We believe this reflects “bleed over” of the fluorescent signal from different areas of the tumor surface. […] The background signal was measured from the patients' skin, muscles (latissmus dorsi, serratus anterior, intercostal), pericardium, normal lung, lymph nodes, adipose tissues, nerves (intercostal), airway and thymus whenever safely possible (FIG. 2b). […]

CC1(C)C(/C=C/C=C/C=C/C=C2\N(CCCCS(=O)(=O)[O-])c3ccc4ccccc4c3C2(C)C)=[N+](CCCCS(=O)(=O)[O-])c2ccc3ccccc3c21.[Na+] [ICG, indocyanine green]
correlation between vascularity (microvessel density) and tumor fluorescence (anti-CD31, human tumors): no correlation
correlation between tumor cell density and fluorescence (human tumors): no correlation
